The target of this experiment is apotransferrin (UniProt P02787). As to the kind of experiment: ligand affinity purification of integrin adhesion complexes, western blot; podocytes spread on dishes coated with ECM ligand or apotransferrin (10 μg/ml); cross-linker DTBP 6 mM for 3 min; cell bodies removed with Triton X-100 extraction buffer and water wash; complexes left bound to the substrate resolved by SDS-PAGE and blotted; only the target purified.

Protein sequences, listed by entry. Tags and fused reporters are not part of them. Residues count along the entry.
UniProt P02787, residues 20-698: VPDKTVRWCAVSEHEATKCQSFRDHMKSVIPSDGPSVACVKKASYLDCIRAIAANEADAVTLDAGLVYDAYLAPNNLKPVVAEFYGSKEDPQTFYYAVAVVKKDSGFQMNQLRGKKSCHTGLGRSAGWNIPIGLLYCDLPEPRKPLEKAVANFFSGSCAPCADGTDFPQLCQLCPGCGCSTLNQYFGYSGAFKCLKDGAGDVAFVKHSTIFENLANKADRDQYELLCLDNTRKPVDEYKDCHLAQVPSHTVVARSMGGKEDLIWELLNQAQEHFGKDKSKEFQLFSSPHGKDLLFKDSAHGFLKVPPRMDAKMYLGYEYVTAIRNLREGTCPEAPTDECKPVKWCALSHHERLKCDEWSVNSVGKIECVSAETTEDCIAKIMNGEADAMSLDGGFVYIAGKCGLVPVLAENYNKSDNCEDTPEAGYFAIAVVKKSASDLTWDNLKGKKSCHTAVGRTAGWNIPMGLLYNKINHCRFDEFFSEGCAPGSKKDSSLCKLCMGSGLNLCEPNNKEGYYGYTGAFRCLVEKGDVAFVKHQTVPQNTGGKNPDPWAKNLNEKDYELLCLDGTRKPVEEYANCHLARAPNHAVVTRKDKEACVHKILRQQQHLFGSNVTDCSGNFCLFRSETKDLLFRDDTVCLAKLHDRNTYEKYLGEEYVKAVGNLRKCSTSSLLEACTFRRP

These are yes or no findings as the source states them, for the method shown.

For the substance vinculin (from UniProt P18206-2), the binding entry is listed as “no binding”.

The record behind these values is PMC7327512.
